Assay results taken from the supplement of paper PMC10849652.
The other results are listed elsewhere or left out.

By UniProt entry, the sequences of proteins in these tests, tags left out. Where a name states a change or a piece, a line headed by the entry shows the natural chain unless it says otherwise.
UniProt Q9P0U1: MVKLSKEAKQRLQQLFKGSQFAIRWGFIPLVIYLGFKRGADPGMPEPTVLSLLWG
UniProt Q9BRZ2: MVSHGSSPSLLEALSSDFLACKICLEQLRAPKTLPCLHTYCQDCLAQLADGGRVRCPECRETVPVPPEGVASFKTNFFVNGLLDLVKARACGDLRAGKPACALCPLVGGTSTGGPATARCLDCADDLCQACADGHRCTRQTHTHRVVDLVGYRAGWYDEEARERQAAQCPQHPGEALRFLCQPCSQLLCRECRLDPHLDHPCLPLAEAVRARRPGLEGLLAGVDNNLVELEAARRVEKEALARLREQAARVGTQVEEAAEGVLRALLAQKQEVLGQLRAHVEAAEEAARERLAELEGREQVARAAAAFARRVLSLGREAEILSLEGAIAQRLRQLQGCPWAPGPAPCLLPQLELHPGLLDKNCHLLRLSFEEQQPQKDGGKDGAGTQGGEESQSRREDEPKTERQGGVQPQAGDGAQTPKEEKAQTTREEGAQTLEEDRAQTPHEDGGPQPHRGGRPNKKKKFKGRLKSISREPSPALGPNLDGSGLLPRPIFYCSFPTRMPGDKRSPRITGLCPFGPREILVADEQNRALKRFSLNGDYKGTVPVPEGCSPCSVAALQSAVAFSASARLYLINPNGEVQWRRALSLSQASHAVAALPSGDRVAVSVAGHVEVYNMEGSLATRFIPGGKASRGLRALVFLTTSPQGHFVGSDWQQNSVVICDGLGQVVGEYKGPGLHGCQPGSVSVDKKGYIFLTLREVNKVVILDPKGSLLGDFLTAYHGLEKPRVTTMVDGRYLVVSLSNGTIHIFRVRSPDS
UniProt Q32P41: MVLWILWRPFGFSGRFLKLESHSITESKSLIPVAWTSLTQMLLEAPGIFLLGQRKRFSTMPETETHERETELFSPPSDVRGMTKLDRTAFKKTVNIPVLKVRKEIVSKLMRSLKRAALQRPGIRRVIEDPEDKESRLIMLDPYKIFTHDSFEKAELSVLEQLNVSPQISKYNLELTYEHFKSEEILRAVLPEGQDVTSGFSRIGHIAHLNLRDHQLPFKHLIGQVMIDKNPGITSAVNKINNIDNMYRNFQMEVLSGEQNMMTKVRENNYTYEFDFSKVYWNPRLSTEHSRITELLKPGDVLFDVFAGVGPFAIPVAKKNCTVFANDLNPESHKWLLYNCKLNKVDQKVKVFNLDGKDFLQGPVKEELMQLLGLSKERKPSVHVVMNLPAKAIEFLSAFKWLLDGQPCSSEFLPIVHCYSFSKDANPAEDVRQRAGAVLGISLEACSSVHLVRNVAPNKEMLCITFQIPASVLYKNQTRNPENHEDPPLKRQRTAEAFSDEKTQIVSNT
UniProt Q9C037: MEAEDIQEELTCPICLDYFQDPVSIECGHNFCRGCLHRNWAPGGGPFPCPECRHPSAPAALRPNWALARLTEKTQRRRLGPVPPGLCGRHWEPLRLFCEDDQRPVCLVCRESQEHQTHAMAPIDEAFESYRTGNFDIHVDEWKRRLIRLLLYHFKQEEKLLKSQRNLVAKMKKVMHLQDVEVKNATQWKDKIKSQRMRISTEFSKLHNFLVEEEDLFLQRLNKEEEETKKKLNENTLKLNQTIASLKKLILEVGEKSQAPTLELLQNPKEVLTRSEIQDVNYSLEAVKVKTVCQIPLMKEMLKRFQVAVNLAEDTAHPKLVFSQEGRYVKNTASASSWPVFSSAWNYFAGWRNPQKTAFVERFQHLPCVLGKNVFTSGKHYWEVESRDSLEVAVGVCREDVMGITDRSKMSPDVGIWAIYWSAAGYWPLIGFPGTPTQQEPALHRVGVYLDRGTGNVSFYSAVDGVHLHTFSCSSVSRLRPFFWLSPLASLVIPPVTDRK
UniProt Q15035: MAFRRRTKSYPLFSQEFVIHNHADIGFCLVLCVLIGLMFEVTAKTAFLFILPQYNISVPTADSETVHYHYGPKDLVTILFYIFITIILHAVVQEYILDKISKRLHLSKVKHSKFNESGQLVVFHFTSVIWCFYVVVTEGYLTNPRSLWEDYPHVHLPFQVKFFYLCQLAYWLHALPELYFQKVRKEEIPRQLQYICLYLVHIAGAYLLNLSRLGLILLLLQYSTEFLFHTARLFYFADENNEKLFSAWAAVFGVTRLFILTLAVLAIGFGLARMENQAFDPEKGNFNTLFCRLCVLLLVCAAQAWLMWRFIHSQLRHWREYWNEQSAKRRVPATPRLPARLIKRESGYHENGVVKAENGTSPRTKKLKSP
UniProt O15164: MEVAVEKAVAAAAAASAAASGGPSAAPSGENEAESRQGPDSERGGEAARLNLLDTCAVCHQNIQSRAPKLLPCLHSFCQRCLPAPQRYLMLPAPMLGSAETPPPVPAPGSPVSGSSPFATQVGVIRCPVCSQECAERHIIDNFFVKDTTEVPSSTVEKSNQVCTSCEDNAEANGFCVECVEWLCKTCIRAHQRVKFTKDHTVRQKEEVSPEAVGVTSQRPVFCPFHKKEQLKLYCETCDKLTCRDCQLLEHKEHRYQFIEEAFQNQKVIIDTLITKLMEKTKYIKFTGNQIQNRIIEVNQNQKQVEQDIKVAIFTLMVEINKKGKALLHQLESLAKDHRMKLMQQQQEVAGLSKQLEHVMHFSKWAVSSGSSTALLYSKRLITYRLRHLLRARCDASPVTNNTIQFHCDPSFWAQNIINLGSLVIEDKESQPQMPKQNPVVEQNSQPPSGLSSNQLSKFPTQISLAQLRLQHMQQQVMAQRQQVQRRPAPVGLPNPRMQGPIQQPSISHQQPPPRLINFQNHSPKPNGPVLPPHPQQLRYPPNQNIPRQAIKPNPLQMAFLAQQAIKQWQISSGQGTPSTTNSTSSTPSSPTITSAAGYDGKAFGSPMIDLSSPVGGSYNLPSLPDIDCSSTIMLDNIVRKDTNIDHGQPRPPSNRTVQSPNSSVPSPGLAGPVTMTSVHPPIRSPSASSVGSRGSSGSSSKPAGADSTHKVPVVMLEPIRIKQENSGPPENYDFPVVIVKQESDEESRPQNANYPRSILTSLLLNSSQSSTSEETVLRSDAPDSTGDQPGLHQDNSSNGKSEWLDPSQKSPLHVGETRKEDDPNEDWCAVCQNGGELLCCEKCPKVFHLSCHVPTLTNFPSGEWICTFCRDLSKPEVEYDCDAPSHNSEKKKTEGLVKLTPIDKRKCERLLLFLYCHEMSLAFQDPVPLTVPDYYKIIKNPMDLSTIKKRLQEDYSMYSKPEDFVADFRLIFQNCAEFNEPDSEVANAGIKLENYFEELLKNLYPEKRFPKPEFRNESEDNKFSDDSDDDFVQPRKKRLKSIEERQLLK
UniProt O75865, whole entry, looked up: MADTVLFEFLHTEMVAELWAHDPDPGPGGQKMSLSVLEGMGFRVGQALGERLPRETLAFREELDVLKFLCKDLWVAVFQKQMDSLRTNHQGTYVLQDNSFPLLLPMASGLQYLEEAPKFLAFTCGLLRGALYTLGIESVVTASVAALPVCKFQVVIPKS
UniProt Q629K1: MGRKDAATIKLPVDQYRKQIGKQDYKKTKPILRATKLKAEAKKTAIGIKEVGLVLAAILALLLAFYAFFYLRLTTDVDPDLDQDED
UniProt P19474, whole entry, looked up: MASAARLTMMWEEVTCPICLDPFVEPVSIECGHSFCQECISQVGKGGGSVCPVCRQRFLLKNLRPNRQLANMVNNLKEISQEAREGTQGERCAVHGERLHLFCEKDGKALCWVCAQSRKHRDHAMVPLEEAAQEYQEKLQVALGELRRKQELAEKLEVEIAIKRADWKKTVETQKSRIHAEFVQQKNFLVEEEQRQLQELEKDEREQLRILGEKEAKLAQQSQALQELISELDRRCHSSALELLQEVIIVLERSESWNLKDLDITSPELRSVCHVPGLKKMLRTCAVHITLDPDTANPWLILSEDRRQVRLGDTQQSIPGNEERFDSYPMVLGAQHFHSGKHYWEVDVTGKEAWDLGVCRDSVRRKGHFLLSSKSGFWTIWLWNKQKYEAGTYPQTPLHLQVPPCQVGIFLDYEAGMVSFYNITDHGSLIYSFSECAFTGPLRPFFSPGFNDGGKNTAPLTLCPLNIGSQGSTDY
UniProt Q13595: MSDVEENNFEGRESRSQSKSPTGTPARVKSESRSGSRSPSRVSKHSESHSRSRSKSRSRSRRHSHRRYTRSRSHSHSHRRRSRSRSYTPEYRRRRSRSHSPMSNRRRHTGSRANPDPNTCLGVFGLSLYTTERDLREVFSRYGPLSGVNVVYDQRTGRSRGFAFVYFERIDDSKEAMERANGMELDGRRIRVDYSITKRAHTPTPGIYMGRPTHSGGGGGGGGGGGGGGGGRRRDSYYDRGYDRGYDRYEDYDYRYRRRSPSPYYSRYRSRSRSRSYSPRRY
UniProt P28908: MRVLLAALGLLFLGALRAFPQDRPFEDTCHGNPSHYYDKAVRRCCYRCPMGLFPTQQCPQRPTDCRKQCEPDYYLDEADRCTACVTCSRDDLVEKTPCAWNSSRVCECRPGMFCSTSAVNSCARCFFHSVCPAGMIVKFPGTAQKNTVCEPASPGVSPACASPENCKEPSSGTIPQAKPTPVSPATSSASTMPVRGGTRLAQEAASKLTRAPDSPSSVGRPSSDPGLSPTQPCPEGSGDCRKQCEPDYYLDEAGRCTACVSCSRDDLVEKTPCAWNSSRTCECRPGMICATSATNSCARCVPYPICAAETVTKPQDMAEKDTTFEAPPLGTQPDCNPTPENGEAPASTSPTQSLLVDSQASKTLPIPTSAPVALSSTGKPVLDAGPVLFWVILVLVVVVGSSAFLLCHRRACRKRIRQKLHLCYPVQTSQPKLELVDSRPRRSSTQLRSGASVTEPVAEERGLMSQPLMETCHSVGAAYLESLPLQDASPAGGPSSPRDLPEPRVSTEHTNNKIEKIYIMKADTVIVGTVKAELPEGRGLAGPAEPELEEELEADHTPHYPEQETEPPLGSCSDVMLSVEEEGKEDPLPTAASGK
UniProt Q6Q0C0: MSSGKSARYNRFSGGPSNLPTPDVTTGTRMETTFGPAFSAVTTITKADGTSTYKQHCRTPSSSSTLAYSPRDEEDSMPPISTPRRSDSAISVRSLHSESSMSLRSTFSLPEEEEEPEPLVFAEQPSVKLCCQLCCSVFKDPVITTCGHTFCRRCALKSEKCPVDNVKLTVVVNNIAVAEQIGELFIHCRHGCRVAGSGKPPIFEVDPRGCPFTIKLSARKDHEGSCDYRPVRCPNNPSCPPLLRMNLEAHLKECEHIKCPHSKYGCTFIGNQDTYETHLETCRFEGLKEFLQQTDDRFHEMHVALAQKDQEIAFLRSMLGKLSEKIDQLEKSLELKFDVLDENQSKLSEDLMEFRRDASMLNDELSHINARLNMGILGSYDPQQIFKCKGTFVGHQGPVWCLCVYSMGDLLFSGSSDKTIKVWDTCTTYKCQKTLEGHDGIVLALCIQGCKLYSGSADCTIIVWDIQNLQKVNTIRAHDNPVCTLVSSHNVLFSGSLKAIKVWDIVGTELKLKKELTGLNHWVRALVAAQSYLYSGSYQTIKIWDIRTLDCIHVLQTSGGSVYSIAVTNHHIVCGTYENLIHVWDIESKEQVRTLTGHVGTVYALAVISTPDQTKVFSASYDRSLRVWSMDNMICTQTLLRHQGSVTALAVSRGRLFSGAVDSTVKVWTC
UniProt Q8N4H5: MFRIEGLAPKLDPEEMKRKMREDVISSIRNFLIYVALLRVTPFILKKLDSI
UniProt Q6PJ69: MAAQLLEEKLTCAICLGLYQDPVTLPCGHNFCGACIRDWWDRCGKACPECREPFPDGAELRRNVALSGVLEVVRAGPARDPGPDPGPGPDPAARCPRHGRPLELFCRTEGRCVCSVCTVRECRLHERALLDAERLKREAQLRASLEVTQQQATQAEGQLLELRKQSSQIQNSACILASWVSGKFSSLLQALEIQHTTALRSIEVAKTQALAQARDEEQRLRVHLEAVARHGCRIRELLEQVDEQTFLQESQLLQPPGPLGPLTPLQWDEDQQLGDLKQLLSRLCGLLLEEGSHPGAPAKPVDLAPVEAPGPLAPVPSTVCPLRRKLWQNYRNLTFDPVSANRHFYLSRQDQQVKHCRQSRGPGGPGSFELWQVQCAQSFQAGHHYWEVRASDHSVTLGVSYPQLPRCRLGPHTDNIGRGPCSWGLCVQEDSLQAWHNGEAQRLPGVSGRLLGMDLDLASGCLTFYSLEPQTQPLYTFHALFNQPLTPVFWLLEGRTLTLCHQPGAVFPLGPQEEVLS
UniProt Q9C035: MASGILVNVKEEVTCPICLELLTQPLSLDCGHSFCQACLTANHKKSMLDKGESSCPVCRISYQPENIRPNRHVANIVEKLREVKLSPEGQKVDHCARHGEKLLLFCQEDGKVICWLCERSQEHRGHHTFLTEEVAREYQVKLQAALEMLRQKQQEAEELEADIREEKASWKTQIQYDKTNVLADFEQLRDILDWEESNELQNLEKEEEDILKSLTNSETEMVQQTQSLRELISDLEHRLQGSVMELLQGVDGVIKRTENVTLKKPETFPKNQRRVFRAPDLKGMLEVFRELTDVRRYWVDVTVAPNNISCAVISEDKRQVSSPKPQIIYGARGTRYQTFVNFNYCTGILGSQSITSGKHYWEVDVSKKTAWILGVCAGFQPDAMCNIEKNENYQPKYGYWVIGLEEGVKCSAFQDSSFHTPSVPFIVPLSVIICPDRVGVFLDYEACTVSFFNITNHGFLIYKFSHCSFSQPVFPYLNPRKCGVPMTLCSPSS

These targets were tested with C1=CC=C(C=C1)[C@H](COC2=CC3=C(C=C2)NC(=O)N3)NC(=O)C4=CC=CN(C4=O)CC5=CC(=C(C=C5)F)F (assay: log2 fold change, soluble protein after heating vs DMSO (PISA); higher = thermal stabilisation; K562 cells, 10 uM, 30 min; active = over 0.2 and 3.5 SD of the protein, either way, in both replicates (recomputed)).
How it was run: (§1)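 Soluble protein was quantified by TMTpro 16plex LC-MS/MS after channel sums were equalised. It was obtained as the supernatant after 21,000xg for 90 min from pooled aliquots of K562 cells (2×10^6 cells/mL, 10 μM compound, 30 min) heated for 3 min across 48°C-58°C and extracted in PBS with 0.5% NP-40 at 4°C. Thermal stability values are relative to control samples and come from duplicates. They are given as log2 fold changes.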

| Target | log2 fold change |
| --- | --- |
| TOR1AIP2 (UniProt Q8NFQ8) | inactive: 0.024 |
| TOMM7 (UniProt Q9P0U1) | inactive: 0.03 |
| TRIM56 (UniProt Q9BRZ2) | inactive: -0.11 |
| TRIM28 (UniProt Q13263) | inactive: -0.029 |
| TRIP11 (UniProt Q15643) | inactive: -0.08 |
| TSC2 (UniProt P49815) | inactive: 0.062 |
| TRMT5 (UniProt Q32P41) | inactive: 0.039 |
| TRIM4 (UniProt Q9C037) | inactive: -0.049 |
| TRAM2 (UniProt Q15035) | inactive: 0.015 |
| TRIM24 (UniProt O15164) | inactive: 0.002 |
| TRAPPC6A isoform 2 (UniProt O75865) | inactive: 0.182 |
| TRIP12 isoform 3 (UniProt Q14669) | inactive: -0.013 |
| TRIM38 (UniProt O00635) | inactive: 0.105 |
| TRIO (UniProt O75962) | inactive: -0.065 |
| TRIR (UniProt Q9BQ61) | inactive: 0.032 |
| TRIQK (UniProt Q629K1) | inactive: 0.098 |
| TRIM21 (UniProt P19474) | inactive: -0.153 |
| TRA2A (UniProt Q13595) | inactive: -0.204 |
| TNFRSF8 (UniProt P28908) | inactive: 0.012 |
| TOM1 (UniProt O60784) | inactive: -0.077 |
| TRAF7 (UniProt Q6Q0C0) | inactive: -0.168 |
| TNRC6B (UniProt Q9UPQ9) | inactive: 0.202 |
| TOR1AIP1 (UniProt Q5JTV8) | inactive: 0.024 |
| TOMM5 isoform 2 (UniProt Q8N4H5) | inactive: 0.034 |
| TNIP1 (UniProt Q15025) | inactive: 0.062 |

What follows are targets tested with CC1=C(SC2=C1C(=N[C@H](C3=NN=C(N32)C)CC(=O)N)C4=CC=C(C=C4)Cl)C in the same assay as above.
How it was run: as §1

| Target | log2 fold change |
| --- | --- |
| TOR1AIP2 (UniProt Q8NFQ8) | inactive: 0.016 |
| TRIM56 (UniProt Q9BRZ2) | inactive: -0.207 |
| TRPS1 isoform 2 (UniProt Q9UHF7) | inactive: -0.114 |
| TRIM28 (UniProt Q13263) | inactive: 0.029 |
| TRIM65 (UniProt Q6PJ69) | inactive: 0.039 |
| TSC2 (UniProt P49815) | inactive: 0.099 |
| TRIM4 (UniProt Q9C037) | inactive: -0.014 |
| TRAM2 (UniProt Q15035) | inactive: 0.057 |
| TRIT1 (UniProt Q9H3H1) | inactive: 0.141 |
| TOM1L2 (UniProt Q6ZVM7) | inactive: 0.138 |
| TRAPPC6A isoform 2 (UniProt O75865) | inactive: 0 |
| TRIM38 (UniProt O00635) | inactive: 0.084 |
| TRIR (UniProt Q9BQ61) | inactive: 0.003 |
| TRIQK (UniProt Q629K1) | inactive: 0.028 |
| TRIM21 (UniProt P19474) | inactive: 0.069 |
| TSC1 (UniProt Q92574) | inactive: -0.098 |
| TRIM5 (UniProt Q9C035) | inactive: 0.021 |
| TNFRSF8 (UniProt P28908) | inactive: 0.053 |
| TRAF7 (UniProt Q6Q0C0) | inactive: 0.22 |
| TNRC6B (UniProt Q9UPQ9) | inactive: -0.057 |
| TRAF3IP1 (UniProt Q8TDR0) | inactive: 0.063 |
| TOR1AIP1 (UniProt Q5JTV8) | inactive: 0.067 |
| TOMM5 isoform 2 (UniProt Q8N4H5) | inactive: 0.047 |
